Source: publication doi:10.1101/2020.03.12.989608
No constants are given. Whether binding was seen depends on the method and setting. Binding calls can cover weak binding; strength is not graded here. Tags and fused reporters may be left off the sequences shown.

Tests used:
[1] = molecular target: T1, GST-TNPO3 (human transportin-3, from pGEX6P3.hTNPO3) (human) (UniProt Q9Y5L0); experiment: pull-down
T1 sequence: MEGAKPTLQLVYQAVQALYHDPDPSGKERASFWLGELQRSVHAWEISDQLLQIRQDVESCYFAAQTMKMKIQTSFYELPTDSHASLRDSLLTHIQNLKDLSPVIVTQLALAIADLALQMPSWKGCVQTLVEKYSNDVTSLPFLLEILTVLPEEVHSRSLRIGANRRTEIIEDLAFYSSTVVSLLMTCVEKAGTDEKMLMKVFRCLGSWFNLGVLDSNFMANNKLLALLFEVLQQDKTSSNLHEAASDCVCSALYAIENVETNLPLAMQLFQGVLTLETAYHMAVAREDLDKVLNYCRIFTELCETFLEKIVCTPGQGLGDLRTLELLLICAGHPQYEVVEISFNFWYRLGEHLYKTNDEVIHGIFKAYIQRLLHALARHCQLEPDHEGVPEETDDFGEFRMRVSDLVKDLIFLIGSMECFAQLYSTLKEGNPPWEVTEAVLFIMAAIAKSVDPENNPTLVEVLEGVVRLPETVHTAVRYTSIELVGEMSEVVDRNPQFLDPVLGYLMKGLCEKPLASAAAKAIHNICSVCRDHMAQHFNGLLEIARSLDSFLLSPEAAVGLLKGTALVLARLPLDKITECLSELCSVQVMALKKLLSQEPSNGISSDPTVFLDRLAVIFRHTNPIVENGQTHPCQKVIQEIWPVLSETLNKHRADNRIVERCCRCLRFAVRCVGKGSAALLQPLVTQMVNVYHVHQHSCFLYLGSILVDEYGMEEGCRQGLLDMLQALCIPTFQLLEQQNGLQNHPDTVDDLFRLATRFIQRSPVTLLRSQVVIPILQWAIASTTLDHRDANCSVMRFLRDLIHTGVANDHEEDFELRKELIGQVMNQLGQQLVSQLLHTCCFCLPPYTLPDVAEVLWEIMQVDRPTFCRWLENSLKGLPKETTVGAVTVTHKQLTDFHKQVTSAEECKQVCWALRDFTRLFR

[2] = molecular target: T2, GST.TNPO3.ΔCargo(1-501) (human) (UniProt Q9Y5L0); experiment: pull-down
T2 sequence: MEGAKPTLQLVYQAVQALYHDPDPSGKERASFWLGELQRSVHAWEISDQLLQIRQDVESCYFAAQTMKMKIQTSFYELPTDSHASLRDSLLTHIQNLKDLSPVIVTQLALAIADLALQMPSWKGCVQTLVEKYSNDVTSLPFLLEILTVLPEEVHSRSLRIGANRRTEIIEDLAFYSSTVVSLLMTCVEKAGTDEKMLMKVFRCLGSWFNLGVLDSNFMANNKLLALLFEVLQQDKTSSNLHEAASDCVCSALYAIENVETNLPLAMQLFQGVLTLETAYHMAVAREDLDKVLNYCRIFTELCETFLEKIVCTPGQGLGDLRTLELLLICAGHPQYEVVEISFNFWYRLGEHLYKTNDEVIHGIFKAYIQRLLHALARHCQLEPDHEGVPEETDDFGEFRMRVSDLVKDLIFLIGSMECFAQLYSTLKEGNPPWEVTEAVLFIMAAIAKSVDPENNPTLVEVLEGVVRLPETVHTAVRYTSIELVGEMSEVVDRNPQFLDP

| Substance | binding [1] | binding [2] |
| --- | --- | --- |
| Gag.ΔSPΔNC (Rous sarcoma virus) (domain or fragment) | binds weakly | binds weakly |
| MA.p2.p10.CA-NTD (Rous sarcoma virus) (domain or fragment) | binds weakly | binds weakly |
| ΔMBD.Gag (Rous sarcoma virus) (domain or fragment) | binds weakly | binds weakly |
